The values that follow come from patent publication US20200308267A1.

In test [1] the target is PIGF. As to the kind of experiment: binding ELISA, coated antigen. (An ELISA detects its analyte on a solid surface through an enzyme-linked reagent.)
Test [2] deals with VEGFB. As to the kind of experiment: binding ELISA, coated antigen.
Test [3] has as its target VEGFC. As to the kind of experiment: binding ELISA, coated antigen.
For test [4], the target named is VEGFD. As to the kind of experiment: binding ELISA, coated antigen.
Test [5] has as its target PIGF. Kind of test: binding ELISA on coated PIGF (Example 5.8).
Test [6] has as its target VEGFB. As to the kind of experiment: binding ELISA on coated VEGFB (Example 5.8).
The target in test [7] is VEGFC. As to the kind of experiment: binding ELISA on coated VEGFC (Example 5.8).
In test [8] the target is VEGFD. As to the kind of experiment: binding ELISA on coated VEGFD (Example 5.8).

These are yes or no findings as the source states them, for the method shown.

B1: VEGFBII021 (VHH, not shown: small tags and cut ends)
chain: EVQLVESGGGLVQTGDSLRLSCEVSGRTFSSYSMGWFRQAQGKEREFVVAISKGGYKYDSVSLEGRFTISKDNAKNTVYLQINSLKPEDTAVYYCASSRAYGSSRLRLADTYEYWGQGTQVTVSSGGGGSGGGGSGGGGSGGGGSGGGGSGGGGSGGGGSGGGGSEVQLVESGGGLVQPGGSLRLSCVASGIRFMSMAWYRQAPGKHRELVARISSGGTTAYVDSVKGRFTISRDNSKNTVYLQMNSLKAEDTAVYYCNTFSSRPNPWGAGTQVTVSS
For the molecule B1, the binding result with PIGF [1] was “no binding”; with VEGFB [2], “no binding”; with VEGFC [3], “no binding”; with VEGFD [4], “no binding”; with PIGF [5], “no binding (tested: 5e-7 M)”; with VEGFB [6], “no binding (tested: 5e-7 M)”. In addition, the binding entry with VEGFC [7] and with VEGFD [8] was “no binding (tested: 5e-7 M)” each time.

B2: VEGFBII025 (VHH, not shown: small tags and cut ends)
chain: EVQLVESGGGLVQAGGSLRLSCAASGRTFSNYAMGWFRQAPGKERVLVADISSSGINTYVADAVKGRFTISRDNAKNTVYLQMNSLKPEDTAVYYCAASAWWYSQMARDNYRYWGQGTQVTVSSGGGGSGGGGSGGGGSGGGGSGGGGSGGGGSGGGGSGGGGSEVQLVESGGGLVQTGDSLRLSCEVSGRTFSSYSMGWFRQAQGKEREFVVAISKGGYKYDSVSLEGRFTISKDNAKNTVYLQINSLKPEDTAVYYCASSRAYGSSRLRLADTYEYWGQGTQVTVSS
Consider B2, for which the binding entry with PIGF [1] is given as “no binding”; with VEGFB [2], “no binding”; with VEGFC [3], “no binding”; in the test with VEGFD [4], “no binding”; with PIGF [5] it was “no binding (tested: 5e-7 M)”; with VEGFB [6], “no binding (tested: 5e-7 M)”. Also, the binding entry with VEGFC [7] and with VEGFD [8] was “no binding (tested: 5e-7 M)” throughout.

B3: VEGFBII022 (VHH, not shown: small tags and cut ends)
chain: EVQLVESGGGLVQTGDSLRLSCEVSGRTFSSYSMGWFRQAQGKEREFVVAISKGGYKYDSVSLEGRFTISKDNAKNTVYLQINSLKPEDTAVYYCASSRAYGSSRLRLADTYEYWGQGTQVTVSSGGGGSGGGSEVQLVESGGGLVQPGGSLRLSCVASGIRFMSMAWYRQAPGKHRELVARISSGGTTAYVDSVKGRFTISRDNSKNTVYLQMNSLKAEDTAVYYCNTFSSRPNPWGAGTQVTVSS
Take B3: the binding entry with PIGF [1] is on record as “no binding”; in the test with VEGFB [2], “no binding”; with VEGFC [3] it was “no binding”; with VEGFD [4], “no binding”; with PIGF [5], “no binding (tested: 5e-7 M)”; with VEGFB [6] it was “no binding (tested: 5e-7 M)”. The binding entry in the test with VEGFC [7] and with VEGFD [8] was “no binding (tested: 5e-7 M)” each time.

B4: VEGFBII24C04 (VHH, not shown: small tags and cut ends)
VHH: EVQLVESGGGLVQPGDSLKLSCVASGRTSSSYSMGWFRQAQGKEREFVVAISSGGYIYDSVSLQGRFTISRDNTKNTVYLQTPSLKPEDTAVYYCAASRAYGSSRLRLADTYDYWGQGTQVTVSS
With B4, the binding result in the test with PIGF [1], in the test with VEGFB [2], with VEGFC [3] and with VEGFD [4] was “no binding (tested: 500 nM)” throughout.

B5: VEGFBII23A06 (VHH, not shown: small tags and cut ends)
VHH: EVQLVESGGGLVQPGDSLKLSCAFSGRTFSSYSMGWFRQAQGKEREFVVAISSGGFIYDAVSLEGRFTISRDNTKNTVYLQTPSLKPEDTAVYYCAASRAYGSSRLRLADTYDYWGQGTQVTVSS
On to B5, for which the binding result in the test with PIGF [1], in the test with VEGFB [2], with VEGFC [3] and with VEGFD [4] was “no binding (tested: 500 nM)” in each case.

B6: VEGFBII23B04 (VHH, not shown: small tags and cut ends)
VHH: EVQLVESGGGLVQTGDSLRLSCEVSGRTFSSYSMGWFRQAQGKEREFVVAISKGGYKYDSVSLEGRFTISKDNAKNTVYLQINSLKPEDTAVYYCASSRAYGSSRLRLADTYEYWGQGTQVTVSS
Take B6: the binding result with PIGF [1], with VEGFB [2], with VEGFC [3] and with VEGFD [4] was “no binding (tested: 500 nM)” throughout.

B7: VEGFBII010 (VHH, not shown: small tags and cut ends)
chain: EVQLVESGGGLVQTGDSLRLSCEVSGRTFSSYSMGWFRQAQGKEREFVVAISKGGYKYDSVSLEGRFTISKDNAKNTVYLQINSLKPEDTAVYYCASSRAYGSSRLRLADTYEYWGQGTQVTVSSGGGGSGGGGSGGGGSGGGGSGGGGSGGGGSGGGGSEVQLVESGGGLVQTGDSLRLSCEVSGRTFSSYSMGWFRQAQGKEREFVVAISKGGYKYDSVSLEGRFTISKDNAKNTVYLQINSLKPEDTAVYYCASSRAYGSSRLRLADTYEYWGQGTQVTVSS
On to B7, for which the binding result is reported as “no binding” in the test with PIGF [1]; “no binding” with VEGFB [2]; “no binding” with VEGFC [3]; “no binding” in the test with VEGFD [4]; “no binding (tested: 5e-7 M)” with PIGF [5]; “no binding (tested: 5e-7 M)” with VEGFB [6]. Moreover, the binding entry with VEGFC [7] and with VEGFD [8] was “no binding (tested: 5e-7 M)” throughout.

B8: VEGFBII024 (VHH, not shown: small tags and cut ends)
chain: EVQLVESGGGLVQTGDSLRLSCEVSGRTFSSYSMGWFRQAQGKEREFVVAISKGGYKYDSVSLEGRFTISKDNAKNTVYLQINSLKPEDTAVYYCASSRAYGSSRLRLADTYEYWGQGTQVTVSSGGGGSGGGGSGGGGSGGGGSGGGGSGGGGSGGGGSGGGGSEVQLVESGGGLVQAGGSLRLSCTASGSAFKSYRMGWFRRTPGKEDEFVASISWTYGSTFYADSVKGRFTMSRDKAKNAGYLQMNSLKPEDTALYYCAAGAQSDRYNIRSYDYWGQGTQVTVSS
With B8, the binding result with PIGF [1] was “no binding”; in the test with VEGFB [2], “no binding”; in the test with VEGFC [3] it was “no binding”; with VEGFD [4] it was “no binding”; in the test with PIGF [5] it was “no binding (tested: 5e-7 M)”; in the test with VEGFB [6], “no binding (tested: 5e-7 M)”. For the same molecule, the binding entry with VEGFC [7] and in the test with VEGFD [8] was “no binding (tested: 5e-7 M)” each time.

B9: VEGFBII023 (VHH, not shown: small tags and cut ends)
chain: EVQLVESGGGLVQTGDSLRLSCEVSGRTFSSYSMGWFRQAQGKEREFVVAISKGGYKYDSVSLEGRFTISKDNAKNTVYLQINSLKPEDTAVYYCASSRAYGSSRLRLADTYEYWGQGTQVTVSSGGGGSGGGGSGGGGSGGGGSGGGGSGGGGSGGGGSGGGGSEVQLVESGGGLVQAGGSLRLSCAASGRTFSNYAMGWFRQAPGKERVLVADISSSGINTYVADAVKGRFTISRDNAKNTVYLQMNSLKPEDTAVYYCAASAWWYSQMARDNYRYWGQGTQVTVSS
As to B9, the binding result with PIGF [1] was “no binding”; with VEGFB [2] it was “no binding”; in the test with VEGFC [3], “no binding”; with VEGFD [4], “no binding”; with PIGF [5] it was “no binding (tested: 5e-7 M)”; in the test with VEGFB [6] it was “no binding (tested: 5e-7 M)”. For the same molecule, the binding entry with VEGFC [7] and with VEGFD [8] was “no binding (tested: 5e-7 M)” each time.
